For the test, the target named is T1, γ-aminobutyric acidA receptor (GABAAR) α2 subunit, expressed from the GABRA2^phGFP plasmid (UniProt P26048).
T1 sequence: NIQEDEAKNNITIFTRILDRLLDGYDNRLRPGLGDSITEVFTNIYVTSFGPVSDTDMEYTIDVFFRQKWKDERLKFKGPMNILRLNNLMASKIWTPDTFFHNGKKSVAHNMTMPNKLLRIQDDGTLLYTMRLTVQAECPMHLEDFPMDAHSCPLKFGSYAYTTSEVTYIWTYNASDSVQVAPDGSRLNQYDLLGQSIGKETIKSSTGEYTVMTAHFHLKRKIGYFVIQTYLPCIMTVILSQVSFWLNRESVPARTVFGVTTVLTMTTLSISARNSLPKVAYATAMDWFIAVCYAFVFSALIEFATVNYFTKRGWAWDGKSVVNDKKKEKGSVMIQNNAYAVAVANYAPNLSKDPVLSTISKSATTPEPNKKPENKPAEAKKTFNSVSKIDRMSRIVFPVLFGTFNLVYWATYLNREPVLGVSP
Kind of test: co-IP; N2a cells transfected with α2, 24 h; cross-linked with 1 mM DSP (cleavable, membrane-permeable; 20 min on ice); extracted with Pierce IP Lysis Buffer; 250 µg lysate pre-cleared with normal IgG; IP with α2 or TLR4 antibody or normal IgG (4 µg) and Protein A/G Plus-Agarose, overnight at 4 °C; four washes; reciprocal immunoblot with α2 or TLR4 antibodies.

Protein sequences, listed by entry. Tags and fused reporters are not part of them. Residues count along the entry.
UniProt Q9QUK6, residues 26-835: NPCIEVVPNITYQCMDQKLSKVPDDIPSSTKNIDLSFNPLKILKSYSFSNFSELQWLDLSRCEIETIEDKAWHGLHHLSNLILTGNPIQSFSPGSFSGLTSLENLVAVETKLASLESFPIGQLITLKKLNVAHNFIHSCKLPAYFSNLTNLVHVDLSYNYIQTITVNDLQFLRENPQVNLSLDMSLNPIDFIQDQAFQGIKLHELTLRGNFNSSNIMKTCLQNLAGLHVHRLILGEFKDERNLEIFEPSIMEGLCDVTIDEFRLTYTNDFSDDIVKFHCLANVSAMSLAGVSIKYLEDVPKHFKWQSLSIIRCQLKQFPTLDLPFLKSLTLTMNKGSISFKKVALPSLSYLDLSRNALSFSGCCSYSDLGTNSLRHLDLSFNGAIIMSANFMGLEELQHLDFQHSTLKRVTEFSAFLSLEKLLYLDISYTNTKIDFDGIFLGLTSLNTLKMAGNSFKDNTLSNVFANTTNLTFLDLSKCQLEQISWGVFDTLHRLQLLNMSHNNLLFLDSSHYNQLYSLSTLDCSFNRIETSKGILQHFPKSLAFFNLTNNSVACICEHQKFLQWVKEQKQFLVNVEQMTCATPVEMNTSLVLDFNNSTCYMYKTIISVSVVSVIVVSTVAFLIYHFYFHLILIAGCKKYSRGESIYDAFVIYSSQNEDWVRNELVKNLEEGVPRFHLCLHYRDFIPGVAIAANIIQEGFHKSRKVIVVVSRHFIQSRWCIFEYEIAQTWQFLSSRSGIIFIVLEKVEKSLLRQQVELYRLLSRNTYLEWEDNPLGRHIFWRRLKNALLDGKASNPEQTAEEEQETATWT

Results are given in words; binding and its absence hold for the method and conditions named. Binding seen in cells or lysates may run through a third protein. Some entries that bind do so weakly or less than the wild type. Sequences can lack the tags named with a protein.

Consider “Toll-like receptor 4 (TLR4), endogenous in N2a cells (from UniProt Q9QUK6 26-835)”, for which the binding result is “binds”.

For the origin of these results see paper PMC5924408.
